This test addresses CnVA-tagged (StrepII-6xHis, 3xFlag) REEP5 (human) (UniProt Q00765). The test can be described thus: affinity purification with mass spectrometry; nickel-His purification of CnVA-REEP5 from transfected HEK293 cells against untransfected controls; Q Exactive Plus, iBAQ.

The chains behind the UniProt entries cited, without tags or fusion partners.
UniProt Q00765: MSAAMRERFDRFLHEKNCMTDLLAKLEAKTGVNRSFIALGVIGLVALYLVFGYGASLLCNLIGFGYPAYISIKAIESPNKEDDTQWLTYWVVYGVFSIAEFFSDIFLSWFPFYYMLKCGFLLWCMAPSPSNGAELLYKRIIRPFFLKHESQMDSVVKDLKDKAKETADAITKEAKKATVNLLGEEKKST

These are yes or no findings as the source states them, for the method shown. Binding seen in cells or lysates may run through a third protein. A yes stands for co-enrichment or nearness to the bait. Other partners may have been found.

B1: ATL3 (HEK293) (protein, UniProt Q6DD88 1-541)
chain: MLSPQRVAAAASRGADDAMESSKPGPVQVVLVQKDQHSFELDEKALASILLQDHIRDLDVVVVSVAGAFRKGKSFILDFMLRYLYSQKESGHSNWLGDPEEPLTGFSWRGGSDPETTGIQIWSEVFTVEKPGGKKVAVVLMDTQGAFDSQSTVKDCATIFALSTMTSSVQIYNLSQNIQEDDLQQLQLFTEYGRLAMDEIFQKPFQTLMFLVRDWSFPYEYSYGLQGGMAFLDKRLQVKEHQHEEIQNVRNHIHSCFSDVTCFLLPHPGLQVATSPDFDGKLKDIAGEFKEQLQALIPYVLNPSKLMEKEINGSKVTCRGLLEYFKAYIKIYQGEDLPHPKSMLQATAEANNLAAAASAKDIYYNNMEEVCGGEKPYLSPDILEEKHCEFKQLALDHFKKTKKMGGKDFSFRYQQELEEEIKELYENFCKHNGSKNVFSTFRTPAVLFTGIVALYIASGLTGFIGLEVVAQLFNCMVGLLLIALLTWGYIRYSGQYRELGGAIDFGAAYVLEQASSHIGNSTQATVRDAVVGRPSMDKKAQ
As for B1, the binding result is “binds”.

The values are drawn from publication PMC7031342.
